The other results are listed elsewhere or left out. The main result of the screen is listed elsewhere. These columns were measured beside it and carry no call. Most of these compounds were active or inconclusive in the main read-out, so they are no random draw. The note in brackets gives the kind of curve behind each potency; many fits are weak.
Assay: qHTS Assay for Lipid Storage Modulators in Drosophila S3 Cells;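 as to cell number change: cells counted by Cell Tracker Red CMTPX staining in the red channel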
Details: BODIPY lipid droplet fluorescence, 18-24 h; for cell number change: measured here: cell count max response, cells fed with added oleic acid
Method in brief: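 Drosophila S3 cells got compounds at several concentrations plus oleic acid (400 uM solution). Laser-scanning cytometry with 488 nm excitation read lipid droplets at 500-530 nm and cells at 575-640 nm. Percent activity was relative to 20 uM Triacsin C.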

[1] = measured here: lipid fluorescence (Fed channel) AC50, cells fed with added oleic acid
[2] = measured here: cell number channel AC50, cells fed with added oleic acid

Compound	cell number change [%]	AC50 [1]	AC50 [2]
COc1ccc(S(=O)(=O)N2CCCN(CC(=O)Nc3ccc4c(c3)OCO4)CC2)cc1	13.5	6.51 µM [falling, single point]	
CN(CC(=O)Nc1ccc(F)c(F)c1F)C(=O)CCc1nc2sc3c(c2c(=O)[nH]1)CCCC3	-0.838	4.61 µM [rising, partial curve, poor fit]	
Cc1noc(NS(=O)(=O)c2ccc(NC(=O)c3cnc4scc(C)n4c3=O)cc2)c1C			0.651 µM [rising, single point]
Cn1ccnc1SCc1cc(=O)[nH]c2ccccc12		16.4 µM [rising, partial curve]	
O=C(NC1CCCC1)c1cc(S(=O)(=O)N2CCOCC2)c(Cl)cc1Cl	78.8		16.4 µM [rising, single point]
O=C(c1cccc(Cl)c1)N1CCN(c2ccc(N3CCOCC3)nn2)CC1	11.5		
COc1ccc(CNC(=O)C2CCN(C(=O)c3csc(Nc4ccc(C)cc4)n3)CC2)cc1	-1.39	4.11 µM [rising, full curve]	
CCCc1cc(=O)[nH]c2nnc(SCC(=O)Nc3nccs3)n12	-50.5	29.1 µM [falling, partial curve]	5.8 µM [falling, partial curve, poor fit]
CCn1c(SCC(=O)NCc2cccs2)nnc1-c1ccco1	4.58		0.58 µM [falling, single point]
O=C(O)c1cccc(NS(=O)(=O)c2ccc(-c3ccc(S(=O)(=O)Nc4cccc(C(=O)O)c4)cc3)cc2)c1	-15.9		0.92 µM [falling, full curve, poor fit]
CCOC(=O)c1c(-c2cccc([N+](=O)[O-])c2)csc1NC(=O)CCCOc1ccccc1	-20.6	0.00461 µM [falling, full curve, poor fit]	
C#CCOc1c(Cl)cc(/C=N/NC(N)=S)cc1OCC	39.5		
COc1ccc(N(C(C)=O)S(=O)(=O)c2cccc3cccnc23)cc1	-66.7	5.8 µM [rising, partial curve]	1.84 µM [falling, partial curve]
O=C(Cn1nnc(-c2ccccc2)n1)NNC(=O)c1cccc([N+](=O)[O-])c1	-8.73	29.1 µM [rising, single point]	
Cc1ccccc1OCC(=O)N/N=C/c1cc2ccccc2nc1Cl	1.87	0.58 µM [rising, full curve, poor fit]	
CCCCNC(=O)C1CCCN(S(=O)(=O)c2ccc(-n3cnnn3)cc2)C1 (stereo not drawn)	16.3		
CCCOP(=O)(c1ccc(N(C)C)cc1)C(O)c1cc(OC)c(OC)c(OC)c1 (stereo not drawn)	28.5	14.6 µM [rising, partial curve, poor fit]	
CCn1c(O)c(/C=C2\C=Nc3ccccc32)sc1=Nc1ccccc1	-13.1	0.058 µM [falling, full curve, poor fit]	

Sorted by molecular weight (rising): 3 of the compounds above.
Compound	cell number change [%]	AC50 [1]	AC50 [2]
CCn1c(O)c(/C=C2\C=Nc3ccccc32)sc1=Nc1ccccc1	-13.1	0.058 µM [falling, full curve, poor fit]	
Cc1ccccc1OCC(=O)N/N=C/c1cc2ccccc2nc1Cl	1.87	0.58 µM [rising, full curve, poor fit]	
COc1ccc(N(C(C)=O)S(=O)(=O)c2cccc3cccnc23)cc1	-66.7	5.8 µM [rising, partial curve]	1.84 µM [falling, partial curve]

Further results:

Compound	cell number change [%]	AC50 [1]	AC50 [2]
COc1ccc(CNC(=S)Nc2ccccc2C)cc1		1.16 µM [rising, partial curve]	0.13 µM [rising, full curve, poor fit]
O=C(COc1ccc(Cl)cc1)N1CCN(S(=O)(=O)c2ccccc2)CC1	112	4.11 µM [rising, partial curve]	2.06 µM [rising, full curve]
Cc1cc(N)n2nc(-c3ccccc3)c(-c3ccccc3)c2n1	-15.3	0.366 µM [rising, full curve]	
CCOC(=O)Cc1c(C)[nH]c(=S)[nH]c1=O	6.17	4.61 µM [falling, single point]	
C[C@@]12C(=O)Nc3ccc(Br)cc3C(=O)N1[C@H]1c3cc(Cl)ccc3OC[C@@H]1[C@@H]2c1ccccc1	3.76	0.103 µM [falling, full curve, poor fit]	0.103 µM [falling, full curve, poor fit]
CC(=O)Nc1ccc(C2(O)COc3ccccc3O2)cc1 (stereo not drawn)	-6.63		
Cc1cc(C)c2c(CN3CCC(C)CC3)cc(=O)oc2c1C	116	29.1 µM [rising, single point]	23.1 µM [rising, partial curve]
COCc1c(C(=O)OCC(=O)N(C)C2CCS(=O)(=O)C2)oc2ccccc12 (stereo not drawn)	21.7	20.6 µM [rising, single point]	
S=c1[nH]nc(CCc2ccccc2)n1Cc1ccccc1	1.62	6.51 µM [rising, single point]	
CCC(C)/C(C)=N/NC(=O)C1COc2ccccc2O1 (stereo not drawn)	3.33	7.31 µM [rising, partial curve]	
O=[N+]([O-])c1ccc(-c2cnc3ccccc3n2)cc1	-0.647	0.651 µM [falling, partial curve, poor fit]	
COc1nc(-c2ccccc2)ccc1-c1noc(C)n1	52	3.26 µM [rising, full curve]	23.1 µM [rising, partial curve, poor fit]
O=C(C(Cl)Cl)N1CCN(c2ccccn2)CC1	-83.3		29.1 µM [falling, partial curve, poor fit]
COc1ccc(OC)c(CN2CCCC(C(=O)N3CCCCC3)C2)c1 (stereo not drawn)	1.56	6.51 µM [falling, single point]	
O=C(NCc1ccccc1)C1c2ccccc2Oc2ccccc21	49.2	3.66 µM [falling, single point]	2.06 µM [rising, partial curve, poor fit]
N/C(=N\S(=O)(=O)c1cc(C(F)(F)F)cc(C(F)(F)F)c1)c1ccc(Cl)cc1	-5.55	6.51 µM [falling, single point]	6.51 µM [falling, single point]
Cn1nc(C(=O)N2CCN(S(=O)(=O)c3ccc(Cl)cc3)CC2)c2ccccc2c1=O	-50.2	29.1 µM [falling, single point]	18.4 µM [falling, partial curve, poor fit]

— PubChem BioAssay AID2685 (National Center for Advancing Translational Sciences (NCATS), 2010)
